Assay results published in patent US4060526A, “1-Heterocyclic alkyl-1,2,3,4-tetrahydroquinazolinones and analgesic intermediates thereof” (priority 1976, dated 1977).

System: isolated guinea pig ileum (Acetylcholine)
Assay: isolated guinea pig ileum screen, block of acetylcholine

CN(C)CCOC(c1ccccc1)c1ccccc1 [Diphenhydramine, reference compound]
Amount to produce a 50% block of Acetylcholine: 6 micrograms
